These are yes or no findings as the source states them, for the method shown. In cells and extracts the contact can be indirect. Some results given as binding are weak or reduced against the parent protein; the word gives no strength.
Molecular target: c-Myc (human (endogenous in AGS and HGC-27)) (UniProt P01106)
Experiment: co-IP; lysates of AGS and HGC-27 cells immunoprecipitated with anti c-Myc antibodies or control IgG; PTBP1 detected by western blotting; endogenous proteins

The chains behind the UniProt entries cited, without tags or fusion partners.
UniProt P01106: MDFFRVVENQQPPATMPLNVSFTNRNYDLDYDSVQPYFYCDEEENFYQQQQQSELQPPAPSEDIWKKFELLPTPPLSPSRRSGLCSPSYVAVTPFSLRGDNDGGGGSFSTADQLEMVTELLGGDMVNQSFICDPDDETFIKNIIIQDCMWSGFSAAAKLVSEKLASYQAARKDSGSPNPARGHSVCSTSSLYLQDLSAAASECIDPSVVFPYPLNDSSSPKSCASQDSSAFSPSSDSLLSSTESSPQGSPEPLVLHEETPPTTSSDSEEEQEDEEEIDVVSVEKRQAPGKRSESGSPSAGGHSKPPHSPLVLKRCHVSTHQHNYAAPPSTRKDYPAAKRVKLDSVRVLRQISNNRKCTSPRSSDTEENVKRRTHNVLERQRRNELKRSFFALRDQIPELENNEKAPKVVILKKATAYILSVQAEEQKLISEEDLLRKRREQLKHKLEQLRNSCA
UniProt P26599: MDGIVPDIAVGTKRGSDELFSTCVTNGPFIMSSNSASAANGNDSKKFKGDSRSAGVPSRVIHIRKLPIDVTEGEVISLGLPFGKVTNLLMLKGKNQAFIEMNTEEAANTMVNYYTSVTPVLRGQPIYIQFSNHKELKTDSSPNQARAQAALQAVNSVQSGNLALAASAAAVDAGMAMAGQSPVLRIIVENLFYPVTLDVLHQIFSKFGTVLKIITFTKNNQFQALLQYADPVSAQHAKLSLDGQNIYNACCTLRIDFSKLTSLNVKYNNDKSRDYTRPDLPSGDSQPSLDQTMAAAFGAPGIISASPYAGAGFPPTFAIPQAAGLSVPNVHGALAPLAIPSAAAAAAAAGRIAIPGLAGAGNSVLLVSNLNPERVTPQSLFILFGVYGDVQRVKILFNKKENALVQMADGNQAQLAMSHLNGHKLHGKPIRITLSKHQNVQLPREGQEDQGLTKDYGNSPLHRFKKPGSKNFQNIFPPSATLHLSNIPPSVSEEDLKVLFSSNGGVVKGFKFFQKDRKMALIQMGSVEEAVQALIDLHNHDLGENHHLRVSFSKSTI

- binding: binds
Substance: Polypyrimidine tract binding protein 1 (from UniProt P26599 1-557)

Reference: paper PMC10006230
